{"sequences": {"note": "By UniProt entry, the sequences of proteins in these tests, tags left out.", "UniProt P04637, whole entry, looked up": "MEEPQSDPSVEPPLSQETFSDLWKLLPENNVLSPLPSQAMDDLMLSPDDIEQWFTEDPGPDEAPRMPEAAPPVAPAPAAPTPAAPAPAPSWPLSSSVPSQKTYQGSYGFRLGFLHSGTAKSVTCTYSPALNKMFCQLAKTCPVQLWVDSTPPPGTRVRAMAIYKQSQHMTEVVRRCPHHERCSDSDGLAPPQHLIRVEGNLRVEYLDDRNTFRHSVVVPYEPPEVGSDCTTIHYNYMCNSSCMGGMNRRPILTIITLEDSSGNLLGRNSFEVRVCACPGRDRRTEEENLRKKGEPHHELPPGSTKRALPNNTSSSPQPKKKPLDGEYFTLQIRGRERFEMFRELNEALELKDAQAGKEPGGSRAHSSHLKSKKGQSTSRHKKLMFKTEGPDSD"}, "source": "PubChem BioAssay (EPA / NIEHS)", "note": "“And” between values parts separate entries of the source, which are not always exact repeats. Equal entries are not always repeated. Inconclusive means that the source gave no clear call. Such entries were picked first, then a sample of the others. Potencies of inconclusive entries are doubtful fits and often do not repeat. The source made the active and inactive calls. How the source made its calls: active means hit-call score of the fitted dose curve at least 0.9, where 1 is the maximum; inconclusive means response in the unintended direction; inactive means score below 0.9."}
{"biological_target": "Cellular tumor antigen p53 (Homo sapiens) (UniProt P04637)", "assay": "TOX21_p53_BLA_p3_ratio: Tox21 HCT-116 p53 Agonism Beta-lactamase Assay, Ratio, Phase 3 (AID 2283596)", "text": "TOX21_p53_BLA_p3 is a cell-based, single-readout assay that uses HCT116, a human intestinal cell line, […] in a 1536-well plate.TOX21_p53_BLA_p3_ratio is an assay readout measuring reporter gene via receptor activity and designed using inducible reporter (beta lactamase induction) detected with GAL4 b-lactamase reporter gene. The signal is derived from the ratio of cleaved (ch2) to uncleaved (ch1) reporter gene substrate used as the measure of target activity.Data from the assay component TOX21_p53_BLA_p3_ratio was analyzed into 1 assay endpoint. This assay endpoint, TOX21_p53_BLA_p3_ratio, was analyzed in the positive analysis fitting direction relative to DMSO as the negative control and baseline of activity. Using a type of inducible reporter, gain-of-signal activity can be used to understand changes in the reporter gene as they relate to the gene TP53. Furthermore, this assay endpoint can be referred to as a primary readout, because this assay has produced multiple assay endpoints where this ratio serves a reporter gene function to understand target activity. To generalize the intended target to other relatable targets, this assay endpoint is annotated to the DNA binding intended target family, where the subfamily is tumor suppressor.\nThawing Method: Place 14 mL of pre-warmed thaw medium into a 15 mL of conical tub. Remove the vial of cells to be thawed from liquid nitrogen and thaw rapidly by placing at 37C in a water bath with gentle agitation for 1-2 minutes. Decontaminate the vial by wiping with 70% ethanol before opening in a biological safety cabinet. Transfer the vial contents drop-wise into 14 mL of thaw medium in a sterile 15-mL conical tub. Centrifuge cells at 900 rpm for 4 minutes and resuspend in thaw medium. Transfer contents to the T75 tissue culture flask containing Thaw Medium and place flask in a humidified 37C/5% CO2 incubator. Switch to growth medium at first passage.Propagation Method: Aspirate medium, rinse once in DPBS, add 0.25% Trypsin/EDTA and swirl to coat the cell evenly. Add an equal volume of Growth Medium to inactivate Trypsin after 2-3 minutes incubation at 37C. Centrifuge cells at 900 rpm for 4 minutes and resuspend in growth medium. Cell should be passage or fed at least twice a week.Assay Protocol: Harvest cells from culture in growth medium and resuspend in assay medium. 2.2 Dispense 4000 cells/5 uL/well into 1536-well black/clear bottom plates using a Multidrop dispenser. After the cells were incubated at 37C for 5 hours, 23 nL of compounds dissolved in DMSO were transferred to the assay plate by a PinTool resulting in a 217-fold dilution. Incubate the plates for 16 hours at 37C, 5% CO2. Add 1 uL of 6X LiveBLAzer FRET B/G (CCF4-AM) Substrate Mixture to each well using a BioRAPTR dispenser and incubate the plates at room temperature for 2 hours. Measure fluorescence intensity at 460 and 530 nm emission and 405 nm excitation by an Envision detector. Data is expressed as the ratio of 460nm/530nm emissions. Add 4 uL of Cell-titer Glo to each well using BioRAPTR and incubate the plates at room temperature for 2 hours. Measure fluorescence intensity by a VewLux plate reader."}
{"compound": "[K+]", "AC50": "inconclusive: 46.1 µM"}
{"compound": "COC(=O)Nc1nc2ccc(C(=O)c3ccccc3)cc2[nH]1", "outcome": "inactive"}
{"compound": "CS(=O)(=O)c1ccc([C@@H](O)[C@@H](COC(=O)CN)NC(=O)C(Cl)Cl)cc1", "outcome": "inactive"}
{"compound": "CC(C(=O)O)c1ccc(-c2ccccc2)c(F)c1", "note": "(stereo not given)", "outcome": "inactive", "AC50": "inconclusive: 46.1 µM"}
{"compound": "Cc1ccc(S(=O)(=O)N=C=O)cc1", "outcome": "inactive", "AC50": "inconclusive: 46.1 µM"}
{"compound": "Nc1cc([N+](=O)[O-])ccc1O", "AC50": "inconclusive: 45.9 µM"}
{"compound": "FC(F)(F)c1ccc(Cl)c(Cl)c1", "AC50": "inconclusive: 46.1 µM", "outcome": "inactive"}
{"compound": "c1cc2c3c(c1)ccc1cccc(c13)C2", "AC50": "inconclusive: 46.9 µM"}
{"compound": "CC(=O)CC(=O)Nc1ccc(S(=O)(=O)O)cc1", "outcome": "inactive"}
{"compound": "O=C(O)c1cc(=O)[nH]c(=O)[nH]1", "AC50": "inconclusive: 46.1 µM", "outcome": "inactive"}
{"compound": "CN(C)CCC(c1ccc(Cl)cc1)c1ccccn1", "note": "(stereo not given)", "AC50": "inconclusive: 46.1 µM"}
{"compound": "C[N+](C)(CCCCCC[N+](C)(C)C1c2ccccc2-c2ccccc21)C1c2ccccc2-c2ccccc21", "AC50": "inconclusive: 23 µM"}
{"compound": "FC(F)(F)c1ccccc1Cl", "AC50": "inconclusive: 47.1 µM"}
{"compound": "COCCOCCOCCOC", "AC50": "inconclusive: 46.1 µM"}
{"compound": "Cc1cnc(C(=O)NCCc2ccc(S(=O)(=O)NC(=O)NC3CCCCC3)cc2)cn1", "AC50": "inconclusive: 23 µM", "outcome": "inactive"}
{"compound": "Cc1ccc2cccnc2c1", "AC50": "inconclusive: 75.7 µM"}
{"compound": "Nc1ccc(S(N)(=O)=O)cc1", "AC50": "inconclusive: 46.1 µM and inconclusive: 46.3 µM"}
{"compound": "CC(=O)OC(C)(C)C1CC=C(C)CC1", "note": "(stereo not given)", "AC50": "inconclusive: 46.1 µM"}
{"compound": "CC1CC(OC(=O)c2ccccc2O)CC(C)(C)C1", "note": "(stereo not given)", "outcome": "inactive", "AC50": "inconclusive: 46.1 µM and inconclusive: 45.7 µM"}
{"compound": "CC(C)C(=O)OCC=Cc1ccccc1", "outcome": "inactive"}
{"compound": "CN(C)Cc1ccccc1", "AC50": "inconclusive: 80.4 µM and inconclusive: 23 µM"}
{"compound": "O=C(O)CC/C=C\\CC[C@@H]1[C@@H](N2CCCCC2)[C@@H](O)C[C@@H]1OCc1ccc(-c2ccccc2)cc1", "outcome": "inactive"}
{"compound": "CC(C(=O)O)c1cccc(C(=O)c2ccccc2)c1", "note": "(stereo not given)", "AC50": "inconclusive: 23 µM"}
{"compound": "NCCCNCCSP(=O)(O)O", "outcome": "inactive"}
{"compound": "CCOCC(O)COc1ccc(NC(=O)CC[S+](C)C)cc1", "note": "(stereo not given)", "outcome": "inactive"}
{"compound": "CCCCC1=NC2(CCCC2)C(=O)N1Cc1ccc(-c2ccccc2-c2nn[nH]n2)cc1", "AC50": "inconclusive: 23 µM"}
{"compound": "O=S(=O)(O)CO", "AC50": "inconclusive: 70.7 µM"}
{"compound": "C=CC(C)(O)CC/C=C(/C)CCC=C(C)C", "note": "(stereo not given)", "AC50": "inconclusive: 46.1 µM"}
{"compound": "Oc1ccc2ccccc2c1", "AC50": "inconclusive: 46.1 µM"}
{"compound": "C=Cc1ccc(C)cc1", "outcome": "inactive"}
{"compound": "COC(=O)NCCC[Si](OC)(OC)OC", "AC50": "inconclusive: 46.1 µM"}
{"compound": "CCCC(=O)O[C@]1(C(=O)COC(=O)CC)[C@@H](C)C[C@H]2[C@@H]3CCC4=CC(=O)C=C[C@]4(C)[C@@]3(F)[C@@H](O)C[C@@]21C", "AC50": "inconclusive: 23 µM"}
